Our source for the binding values is patent publication US20020115599A1.

No constants are given. Whether binding was seen depends on the method and setting. Some results given as binding are weak or reduced against the parent protein; the word gives no strength. Tags and fused reporters may be left off the sequences shown.

In this assay the target is T1, GST-Xklp2-tail (glutathione-S-transferase fusion protein containing the COOH-terminal domain of Xklp2) (Xenopus) (UniProt Q91785).
T1 sequence (looked up): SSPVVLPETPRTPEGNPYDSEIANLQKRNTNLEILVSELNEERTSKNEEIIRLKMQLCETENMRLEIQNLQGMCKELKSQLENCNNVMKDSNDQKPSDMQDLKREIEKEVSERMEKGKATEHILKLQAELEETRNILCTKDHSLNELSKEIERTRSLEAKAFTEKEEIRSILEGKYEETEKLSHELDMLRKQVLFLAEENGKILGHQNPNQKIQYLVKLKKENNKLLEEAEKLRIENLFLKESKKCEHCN
As to the kind of experiment: worded summary in Example 4; the experiment is TPX2-mediated co-sedimentation of GST-Xklp2-tail with microtubules.

B1: TPX2 (targeting protein for Xklp2), native Xenopus laevis protein purified from or present in egg extract and XL177 cells (protein)
chain: MEDTQDTYSYDAPSIFNFSSFHEDHNADSWFDQVTNAENIPPDQRRLSETSVNTEQNSKVQPVQTTPSKDDVSNSATHVCDVKSQSKRSSRRMSKKHRQKLLVKMKDTHLEKETAPPEYPPCKKLKGSSSKGRHAPVIKSQSTSSHHSMTSPKPKAQLTMPSTPTVLKRRNVLVKAKNSEEQELEKMQELQKEMLENLKKNEHSMKVAITGAGQPVKTFIPVTKPVDFHFKTDDRLKRTANQPEGDGYKAVDFASELRKHPPSPVQVTKGGHTVPKPFNLSKGKRKHEEASDYVSTAEQVIAFYKRTPARYHLRSRQREMEGPSPVKMIKTKLTNPKTPLLQTKGRHRPVTCKSAAELEAEELEMINQYKFKAQELEELEMINQPVLLKKPLVKEPTKAIGFDLEIEKRIQQREKKEEIEEETFTFHSRPCPSKMLTDVVGVPLKKLLPVTVPQSPAFALKNRVRIPAQEEKEEMVPVIKATRMPHYGVPFKPKLVEQRQVDVCPFSFCDRDKERQLQKEKRLDELRKDEVPKFKAQPLPQFDNIRLPEKKVKMPTQQEPFDLEIEKRGASKLQRWQQQIQEELKQQKEMVVFKARPNTVVHQEPFVPKKENRSLTESLSGSIVQEGFELATAKRAKERQEFDKCLAETEAQKSLLEEEIRKRREEEEKEEISQLRQELVHKAKPIRKYRAVEVKASDVPLTVPRSPNFSDRFKC
modifications: phosphorylated in mitotic extract (sites not determined)
For the molecule B1, the binding result is “binds”.
